Results deposited as PubChem BioAssay AID743448 (Peter MacCallum Cancer Centre, 2014)
Test: 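Third-round triage of 106 confirmed candidates in four colon lines under two drugs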 (follow-up of hits). System: four human colon cancer cell lines: HCT116-VR (vorinostat-resistant HCT116 derivative), SW480, SW620 and LIM1215. Knock-down reagent: siRNA pool against human genes, 40 nM siRNA pool. Timing: drug added two days after transfection, read one day later. Treatment: vorinostat 2.5 µM on one half of each plate, etoposide 5 µM on the other half. Measurement: 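Caspase luminescence and viability fluorescence, each expressed relative to mock transfection and also as robust z-scores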. Reading the numbers: caspase ratio to mock: higher = more caspase activity than mock; viability ratio to mock: higher = more live cells than mock. Hit rule: 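Hit means caspase ratio to mock at least 1.6, or viability ratio to mock at most 0.75; wells with strong death in the absence of drug get no call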. Meaning of the calls: active = caspase or viability hit in this panel; inactive = no change, or unhealthy well.
Shown is an unselected part of 106 deposited reagents. 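Calls are per line and drug panel including etoposide, not vorinostat-specific; gene picks needed hits in two or more extra lines with vorinostat versus etoposide.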 Entries without a mark were called inactive. Not all columns of the deposit are shown.

With SERTAD1, cell line and drug panel LIM1215 cells with etoposide, the values are caspase ratio to mock 1.69 (active); viability ratio to mock 0.92.
For SERTAD1, cell line and drug panel LIM1215 cells with vorinostat, the entry reads caspase ratio to mock 1.83 (active); viability ratio to mock 0.78.
With SERTAD1, cell line and drug panel SW480 cells with etoposide, the entry reads caspase ratio to mock 2.56 (active); viability ratio to mock 0.87.
For SERTAD1, cell line and drug panel SW480 cells with vorinostat, the values are caspase ratio to mock 2.15 (active); viability ratio to mock 0.93.
SERTAD1, cell line and drug panel SW620 cells with etoposide gave caspase ratio to mock 1.71 (active); viability ratio to mock 0.91.
With SERTAD1, cell line and drug panel SW620 cells with vorinostat, the entry reads caspase ratio to mock 1.27; viability ratio to mock 0.85.
With SERTAD1, cell line and drug panel vorinostat-resistant HCT116 cells with etoposide, the values are caspase ratio to mock 2.69 (active); viability ratio to mock 0.94.
SERTAD1, cell line and drug panel vorinostat-resistant HCT116 cells with vorinostat gave caspase ratio to mock 2.44 (active); viability ratio to mock 0.88.
SH3GLB2, cell line and drug panel LIM1215 cells with etoposide showed caspase ratio to mock 1.45; viability ratio to mock 0.99.
With SH3GLB2, cell line and drug panel LIM1215 cells with vorinostat the deposit lists caspase ratio to mock 1.37; viability ratio to mock 0.96.
SH3GLB2, cell line and drug panel SW480 cells with etoposide scored caspase ratio to mock 0.84; viability ratio to mock 0.92.
SH3GLB2, cell line and drug panel SW480 cells with vorinostat showed caspase ratio to mock 1.35; viability ratio to mock 0.98.
SH3GLB2, cell line and drug panel SW620 cells with etoposide showed caspase ratio to mock 1.61 (active); viability ratio to mock 0.96.
With SH3GLB2, cell line and drug panel SW620 cells with vorinostat, the entry reads caspase ratio to mock 1.25; viability ratio to mock 0.95.
SH3GLB2, cell line and drug panel vorinostat-resistant HCT116 cells with etoposide scored caspase ratio to mock 1.16; viability ratio to mock 1.07.
SH3GLB2, cell line and drug panel vorinostat-resistant HCT116 cells with vorinostat gave caspase ratio to mock 1.17; viability ratio to mock 0.94.

Look-ups from the entries so far:
For “viability ratio to mock”, SERTAD1, cell line and drug panel vorinostat-resistant HCT116 cells with vorinostat reads 0.88 (active)
Value for SH3GLB2, cell line and drug panel SW480 cells with vorinostat in “viability ratio to mock”: 0.98

Continued:
MED26, cell line and drug panel LIM1215 cells with etoposide gave caspase ratio to mock 2.99 (active); viability ratio to mock 1.02.
For MED26, cell line and drug panel LIM1215 cells with vorinostat, the entry reads caspase ratio to mock 3.17 (active); viability ratio to mock 1.05.
With MED26, cell line and drug panel SW480 cells with etoposide the deposit lists caspase ratio to mock 6.14 (active); viability ratio to mock 0.8.
MED26, cell line and drug panel SW480 cells with vorinostat showed caspase ratio to mock 2.02 (active); viability ratio to mock 0.68.
For MED26, cell line and drug panel SW620 cells with etoposide, the entry reads caspase ratio to mock 2.09 (active); viability ratio to mock 1.04.
For MED26, cell line and drug panel SW620 cells with vorinostat, the entry reads caspase ratio to mock 2.33 (active); viability ratio to mock 1.1.
MED26, cell line and drug panel vorinostat-resistant HCT116 cells with etoposide gave caspase ratio to mock 3.92 (active); viability ratio to mock 0.88.
MED26, cell line and drug panel vorinostat-resistant HCT116 cells with vorinostat showed caspase ratio to mock 3.96 (active); viability ratio to mock 0.94.
RWDD2A, cell line and drug panel LIM1215 cells with etoposide showed caspase ratio to mock 1.5; viability ratio to mock 1.05.
RWDD2A, cell line and drug panel LIM1215 cells with vorinostat gave caspase ratio to mock 1.65 (active); viability ratio to mock 0.94.
For RWDD2A, cell line and drug panel SW480 cells with etoposide, the entry reads caspase ratio to mock 2.17 (active); viability ratio to mock 1.06.
For RWDD2A, cell line and drug panel SW480 cells with vorinostat, the entry reads caspase ratio to mock 1.6 (active); viability ratio to mock 0.92.
For RWDD2A, cell line and drug panel SW620 cells with etoposide, the entry reads caspase ratio to mock 1.19; viability ratio to mock 0.9.
With RWDD2A, cell line and drug panel SW620 cells with vorinostat the deposit lists caspase ratio to mock 1.5; viability ratio to mock 0.91.
RWDD2A, cell line and drug panel vorinostat-resistant HCT116 cells with etoposide scored caspase ratio to mock 1.68 (active); viability ratio to mock 1.12.
RWDD2A, cell line and drug panel vorinostat-resistant HCT116 cells with vorinostat scored caspase ratio to mock 1.66 (active); viability ratio to mock 1.02.
DDX18, cell line and drug panel LIM1215 cells with etoposide showed caspase ratio to mock 1.42; viability ratio to mock 1.01.
For DDX18, cell line and drug panel LIM1215 cells with vorinostat the deposit lists caspase ratio to mock 3.19 (active); viability ratio to mock 0.98.
For DDX18, cell line and drug panel SW480 cells with etoposide, the entry reads caspase ratio to mock 0.76; viability ratio to mock 0.89.
With DDX18, cell line and drug panel SW480 cells with vorinostat, the entry reads caspase ratio to mock 0.97; viability ratio to mock 1.01.
For DDX18, cell line and drug panel SW620 cells with etoposide, the entry reads caspase ratio to mock 0.43 (active); viability ratio to mock 0.74.
DDX18, cell line and drug panel SW620 cells with vorinostat scored caspase ratio to mock 0.89; viability ratio to mock 0.96.
For DDX18, cell line and drug panel vorinostat-resistant HCT116 cells with etoposide, the values are caspase ratio to mock 1.14 (active); viability ratio to mock 0.72.
With DDX18, cell line and drug panel vorinostat-resistant HCT116 cells with vorinostat, the values are caspase ratio to mock 1.48 (active); viability ratio to mock 0.73.
